Experimental findings from PubChem BioAssay AID328 (DTP/NCI, 2004) are described below.

The list shows only some results of the screen, not a fair sample: it gathers tests that were run many times, whatever their T/C, doses with no T/C, and many T/C values between a quarter and a half above the control. Other doses and runs of a compound stand elsewhere. T/C is the treated group as % of the vehicle group. Some entries give survivors of the animals treated and no T/C: the source files T/C as zero there, which appears to mark a toxic dose or a test without result, not a measured value. Some doses without a T/C left all or most animals alive at the check, yet need not have been tolerated: survival well below the control is almost never listed, so the zero probably covers shortened survival too. Survivors were counted at the toxicity check, usually on the fifth day, unless a day is given; later deaths do not show. Schedules are NCI's codes, taken here to give the interval after Q, in days (D) or hours (H), and the number of doses after X. Brackets with × say how often a value occurs here. Where survival is the endpoint, the PubChem record calls one and a half times the control and up active, and a quarter to a half above the control has no call in these data; cut-offs in other NCI protocols can differ. Some doses were run more than once; the results are listed from low to high. Some T/C values carry the count of animals alive at the toxicity check (mostly the fifth day); without a count, all were alive then. Starred links: 1 amine or outer side, 2 acyl side, 3 side chain; linkers in the order of their positions; H or OH if unused. Positions of bridges follow the written chain, without caps; N, C: chain ends. Non-standard residues stand in square brackets, D forms with d. Residues, ends and D or L forms follow the SMILES beside them. Chains are numbered I, II in the order given. Actinocin(9to1) = Cc1c2oc3c(C)ccc(C(=O)[*:1])c3nc-2c(C(=O)[*:2])c(N)c1=O; NMeV = CN[CH](C(=O)O)C(C)C; Pip = O=C(O)[CH]1CCCCN1; Sar = CNCC(=O)O

This assay has as its system BDF1 mice, P388 leukemia ip, median survival T/C. In words: NCI In Vivo Anticancer Drug Screen. Data for tumor model P388 Leukemia (intraperitoneal) in B6D2F1 (BDF1) mice. The conditions noted are these: T/C endpoint: median survival time, higher T/C = longer survival. The gist of the method:
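Survival ratio, drug arm over vehicle arm, in mice with a transplanted tumour.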

The mark [1] stands for this setting: dose: 200.0 mg/kg/injection, schedule: Q01DX009 (ip), vehicle: Klucel (hydroxypropylcellulose) (HPC).
The mark [2] stands for this setting: dose: 100.0 mg/kg/injection, schedule: Q01DX009 (ip), vehicle: saline with Tween-80.
Setting [3] is: dose: 200.0 mg/kg/injection, schedule: Q01DX009 (ip), vehicle: saline with Tween-80.

Consider `Cc1c2oc3c(C)ccc(C(=O)NC4C(=O)NC(C(C)C)C(=O)N5CCCCC5C(=O)N(C)CC(=O)N(C)C(C(C)C)C(=O)OC4C)c3nc-2c(C(=O)NC2C(=O)NC(C(C)C)C(=O)N3CCCCC3C(=O)N(C)CC(=O)N(C)C(C(C)C)C(=O)OC2C)c(N)c1=O` (stereo not given) (I: TV[Pip][Sar][NMeV] / II: TV[Pip][Sar][NMeV]; ester I:1-I:C, II:1-II:C; linker I:N-II:N via Actinocin(9to1); configuration not given here), for which the T/C (dose: 0.15 mg/kg/injection, schedule: Q01DX010 (ip), vehicle: other) was 140 % of control; the T/C (dose: 0.3 mg/kg/injection, schedule: Q01DX010 (ip), vehicle: other) is 140 % of control; the T/C (dose: 0.5 mg/kg/injection, schedule: Q01DX009 (ip), vehicle: saline + alcohol) is 135 % of control; the T/C (dose: 1.0 mg/kg/injection, schedule: Q01DX009 (ip), vehicle: saline + alcohol) is 142 % of control; the T/C (dose: 1.5 mg/kg/injection, schedule: Q04DX003 (ip), vehicle: saline + alcohol) was 128 % of control; the T/C (dose: 3.0 mg/kg/injection, schedule: Q04DX003 (ip), vehicle: saline + alcohol) is 144 % of control.

As to `CC1(c2ccc(Cl)cc2)NC(=O)NC1=O` (stereo not given), the survivor count (dose: 100.0 mg/kg/injection, schedule: Q04DX003 (ip), vehicle: saline sonified) is on record as 6 of 6.

In the case of `O=C(O)/C=N/NS(=O)(=O)/C=C/c1ccccc1`, the T/C runs as follows: (dose: 12.5 mg/kg/injection, schedule: Q01DX009 (ip), vehicle: other) 129 % of control; (dose: 25.0 mg/kg/injection, schedule: Q01DX009 (ip), vehicle: other) 140 % of control. The survivor count is listed as 5 of 6 (dose: 200.0 mg/kg/injection, schedule: Q01DX009 (ip), vehicle: other) and 0 of 6 (dose: 400.0 mg/kg/injection, schedule: Q01DX009 (ip), vehicle: other).

As for `COc1cccc2c1C(=O)c1c(O)c3c(c(O)c1C2=O)C[C@@](O)(/C(C)=N/NC(=O)c1ccc(O)cc1)C[C@@H]3OC1CC(N)C(O)C(C)O1` (stereo not given in full), where the note is “dose: 0.25 mg/kg/injection, schedule: Q01DX009 (ip), vehicle: water”, the T/C was 125 % of control.

As for `O=C(CNC(=O)c1cccc(C(=O)NCC(=O)Nc2ccc(C3=NCCN3)cc2)c1)Nc1ccc(C2=NCCN2)cc1`, the T/C was 131 and 140 % of control (dose: 12.5 mg/kg/injection, schedule: Q01DX009 (ip), vehicle: saline); 132 % of control (dose: 18.0 mg/kg/injection, schedule: Q01DX009 (ip), vehicle: saline).

Take `C[n+]1c(-c2cc(Cl)cc(Cl)c2)c2cc([N+](=O)[O-])ccc2c2ccccc21`: the T/C (dose: 100.0 mg/kg/injection, schedule: Q04DX003 (ip), vehicle: water) was 135 % of control.

As for `CCCCCCCCCCCCCCCCOc1ccccn1`, the survivor count reads like this: (dose: 100.0 mg/kg/injection, schedule: Q01DX009 (ip), vehicle: Klucel (hydroxypropylcellulose) (HPC)) 6 of 6; under setting [1], 6 of 6; (dose: 400.0 mg/kg/injection, schedule: Q01DX009 (ip), vehicle: Klucel (hydroxypropylcellulose) (HPC)) 5 of 6.

Regarding `c1ccc(-n2nc3c(c2OCCN2CCCC2)CCCc2ccccc2-3)cc1`, the survivor count reads like this: (dose: 150.0 mg/kg/injection, schedule: Q04DX003 (ip), vehicle: saline with Tween-80) 3 of 6; (dose: 200.0 mg/kg/injection, schedule: Q04DX003 (ip), vehicle: saline with Tween-80) 0 of 6; (dose: 400.0 mg/kg/injection, schedule: Q04DX003 (ip), vehicle: saline with Tween-80) 0 of 6.

Consider `O=C([CH-]C(=O)C(F)(F)F)c1ccccc1.O=C([CH-]C(=O)C(F)(F)F)c1ccccc1.O=C([CH-]C(=O)C(F)(F)F)c1ccccc1.O=C([CH-]C(=O)C(F)(F)F)c1ccccc1.[Eu+3].c1ccncc1`, for which the T/C runs as follows: (dose: 50.0 mg/kg/injection, schedule: Q01DX009 (ip), vehicle: Klucel (hydroxypropylcellulose) (HPC)) 128 % of control; under setting [1], 136 % of control.

As for `NNC(=O)C(=O)NCc1ccco1`, the survivor count under setting [2] was 0 of 6 and the survivor count under setting [3] is 0 of 6.

Regarding `OC(CC1CCCCN1)c1cc2c(Cl)cc(Cl)cc2c2cc(C(F)(F)F)ccc12` (stereo not given), the survivor count was 6 of 6 under setting [2] and 0 of 6 under setting [3].

`C1=C(c2ccccc2)OC(c2ccccc2)=C(c2ccccc2)[P+]1(c1ccccc1)c1ccccc1`: the survivor count (dose: 50.0 mg/kg/injection, schedule: Q01DX005 (ip), vehicle: saline with Tween-80) is 0 of 5; the survivor count (dose: 100.0 mg/kg/injection, schedule: Q01DX005 (ip), vehicle: saline with Tween-80) is listed as 0 of 5; the survivor count (dose: 200.0 mg/kg/injection, schedule: Q01DX005 (ip), vehicle: saline with Tween-80) is given as 0 of 5.

`C=C1C(=O)O[C@@H]2/C=C(/C)[C@@]3(O)C=C[C@](C)(C[C@@H](OC(=O)/C(=C\C)COC(C)=O)[C@@H]12)O3`: the survivor count runs as follows: (dose: 2.0 mg/kg/injection, schedule: Q01DX009 (ip), vehicle: carboxymethylcellulose (CMC)) 6 of 6; (dose: 4.0 mg/kg/injection, schedule: Q01DX009 (ip), vehicle: carboxymethylcellulose (CMC)) 3 of 6; (dose: 12.0 mg/kg/injection, schedule: Q01DX010 (ip), vehicle: carboxymethylcellulose (CMC)) 3 of 6; (dose: 60.0 mg/kg/injection, schedule: Q01DX010 (ip), vehicle: saline) 5 of 6. Also, the T/C reads like this: (dose: 10.0 mg/kg/injection, schedule: Q01DX010 (ip), vehicle: saline) 140 % of control; (dose: 18.0 mg/kg/injection, schedule: Q01DX010 (ip), vehicle: carboxymethylcellulose (CMC)) 126 % of control [4 of 6 alive]; (dose: 20.0 mg/kg/injection, schedule: Q01DX010 (ip), vehicle: saline) 145 % of control; (dose: 27.0 mg/kg/injection, schedule: Q01DX010 (ip), vehicle: saline) 127 % of control.

Consider `S=C(S)N1CCN(C(=S)S)CC1`, for which the T/C is, setting by setting: (dose: 50.0 mg/kg/injection, schedule: Q01DX009 (ip), vehicle: saline) 131 % of control; (dose: 75.0 mg/kg/injection, schedule: Q01DX009 (ip), vehicle: saline) 95, 100, 104, 105 % of control. In addition, the survivor count by setting is: (dose: 150.0 mg/kg/injection, schedule: Q01DX009 (ip), vehicle: saline) 6 of 6; (dose: 300.0 mg/kg/injection, schedule: Q01DX009 (ip), vehicle: saline) 0 of 6; (dose: 400.0 mg/kg/injection, schedule: Q01DX009 (ip), vehicle: saline) 0 of 6.

In the case of `COC1CC(OS(=O)(=O)c2ccc(C)cc2)C(O)C(C)O1` (stereo not given), where the note is “dose: 400.0 mg/kg/injection, schedule: Q01DX009 (ip), vehicle: saline with Tween-80”, the survivor count is 5 of 6 (2×).

`CN(C)CCNc1ccc([N+](=O)[O-])c2sc3ccccc3c(=O)c12`: the T/C reads like this: (dose: 12.5 mg/kg/injection, schedule: Q01DX009 (ip), vehicle: Klucel (hydroxypropylcellulose) (HPC)) 125 % of control; (dose: 17.0 mg/kg/injection, schedule: Q01DX009 (ip), vehicle: Klucel (hydroxypropylcellulose) (HPC)) 134 and 138 % of control; (dose: 25.0 mg/kg/injection, schedule: Q01DX009 (ip), vehicle: Klucel (hydroxypropylcellulose) (HPC)) 137 % of control. Besides, the survivor count is, setting by setting: (dose: 100.0 mg/kg/injection, schedule: Q04DX003 (ip), vehicle: Klucel (hydroxypropylcellulose) (HPC)) 1 of 6; (dose: 200.0 mg/kg/injection, schedule: Q04DX003 (ip), vehicle: Klucel (hydroxypropylcellulose) (HPC)) 1 of 6; (dose: 400.0 mg/kg/injection, schedule: Q04DX003 (ip), vehicle: Klucel (hydroxypropylcellulose) (HPC)) 3 of 6.
